According to patent US20260201389A1:
No constants are given. Whether binding was seen depends on the method and setting. In cells and extracts the contact can be indirect. Some binding calls cover weakened binding; strength is not graded here.

Amino acid sequences for entries named in this document (tags omitted). A change or cut given only in a name is not applied to a line headed by its entry. Residues count along the entry.
UniProt O35253: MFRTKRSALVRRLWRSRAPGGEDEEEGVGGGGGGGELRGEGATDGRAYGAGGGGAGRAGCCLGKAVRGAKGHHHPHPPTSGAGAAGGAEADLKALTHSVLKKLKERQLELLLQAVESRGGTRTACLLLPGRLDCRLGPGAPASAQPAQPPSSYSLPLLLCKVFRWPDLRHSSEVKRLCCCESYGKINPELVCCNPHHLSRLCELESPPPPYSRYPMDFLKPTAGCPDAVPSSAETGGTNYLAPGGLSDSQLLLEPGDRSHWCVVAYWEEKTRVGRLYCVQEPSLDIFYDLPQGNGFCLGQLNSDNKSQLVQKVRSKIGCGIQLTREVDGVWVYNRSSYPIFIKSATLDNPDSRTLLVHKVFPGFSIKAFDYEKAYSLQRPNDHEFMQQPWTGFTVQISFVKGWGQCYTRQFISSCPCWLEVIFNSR
UniProt Q62432, residues 2-467: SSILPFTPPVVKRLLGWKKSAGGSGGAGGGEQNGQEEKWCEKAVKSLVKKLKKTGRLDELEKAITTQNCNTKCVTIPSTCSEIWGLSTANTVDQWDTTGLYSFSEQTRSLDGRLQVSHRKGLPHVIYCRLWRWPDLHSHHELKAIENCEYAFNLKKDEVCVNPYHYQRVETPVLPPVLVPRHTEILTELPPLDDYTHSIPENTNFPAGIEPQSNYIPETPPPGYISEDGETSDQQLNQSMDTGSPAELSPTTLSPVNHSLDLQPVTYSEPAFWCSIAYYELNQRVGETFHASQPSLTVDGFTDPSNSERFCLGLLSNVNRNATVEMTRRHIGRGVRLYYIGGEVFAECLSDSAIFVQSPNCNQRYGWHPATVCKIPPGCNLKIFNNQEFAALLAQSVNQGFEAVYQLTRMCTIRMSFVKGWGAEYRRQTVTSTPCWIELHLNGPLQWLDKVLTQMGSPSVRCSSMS
UniProt O00308: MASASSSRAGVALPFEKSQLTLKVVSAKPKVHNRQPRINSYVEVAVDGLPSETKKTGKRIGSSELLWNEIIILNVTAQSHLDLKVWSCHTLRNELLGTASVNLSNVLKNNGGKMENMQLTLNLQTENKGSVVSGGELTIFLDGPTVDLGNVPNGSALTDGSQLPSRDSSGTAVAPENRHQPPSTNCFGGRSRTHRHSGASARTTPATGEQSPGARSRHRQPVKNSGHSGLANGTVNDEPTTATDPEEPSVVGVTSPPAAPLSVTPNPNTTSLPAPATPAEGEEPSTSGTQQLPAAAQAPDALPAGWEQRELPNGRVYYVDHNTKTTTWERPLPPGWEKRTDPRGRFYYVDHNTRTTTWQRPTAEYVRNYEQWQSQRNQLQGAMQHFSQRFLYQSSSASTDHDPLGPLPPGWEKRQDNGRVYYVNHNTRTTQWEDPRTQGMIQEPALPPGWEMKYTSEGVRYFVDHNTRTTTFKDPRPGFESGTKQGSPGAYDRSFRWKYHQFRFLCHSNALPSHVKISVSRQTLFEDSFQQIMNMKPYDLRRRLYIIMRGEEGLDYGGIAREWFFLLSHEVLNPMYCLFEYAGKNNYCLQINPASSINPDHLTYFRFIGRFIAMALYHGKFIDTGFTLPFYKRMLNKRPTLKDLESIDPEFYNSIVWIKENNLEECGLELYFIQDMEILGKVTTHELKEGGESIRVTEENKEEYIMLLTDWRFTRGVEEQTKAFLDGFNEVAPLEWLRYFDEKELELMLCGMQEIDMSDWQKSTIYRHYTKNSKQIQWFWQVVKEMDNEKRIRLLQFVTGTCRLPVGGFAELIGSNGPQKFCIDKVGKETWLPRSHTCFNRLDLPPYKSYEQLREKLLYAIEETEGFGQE
WWP2-N, endogenous in mouse WT primary cardiac fibroblasts (Q9DBH0, residues 1-335): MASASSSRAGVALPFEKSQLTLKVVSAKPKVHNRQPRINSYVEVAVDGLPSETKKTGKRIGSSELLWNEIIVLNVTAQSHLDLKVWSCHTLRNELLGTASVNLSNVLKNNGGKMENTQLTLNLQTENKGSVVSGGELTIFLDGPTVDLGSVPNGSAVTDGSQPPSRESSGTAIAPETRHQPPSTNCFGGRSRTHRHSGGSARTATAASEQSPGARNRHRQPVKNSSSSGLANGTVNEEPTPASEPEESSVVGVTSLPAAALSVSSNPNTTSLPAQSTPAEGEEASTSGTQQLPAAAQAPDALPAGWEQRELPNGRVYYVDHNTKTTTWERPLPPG
WWP2-C, endogenous in mouse WT primary cardiac fibroblasts (Q9DBH0, residues 440-870): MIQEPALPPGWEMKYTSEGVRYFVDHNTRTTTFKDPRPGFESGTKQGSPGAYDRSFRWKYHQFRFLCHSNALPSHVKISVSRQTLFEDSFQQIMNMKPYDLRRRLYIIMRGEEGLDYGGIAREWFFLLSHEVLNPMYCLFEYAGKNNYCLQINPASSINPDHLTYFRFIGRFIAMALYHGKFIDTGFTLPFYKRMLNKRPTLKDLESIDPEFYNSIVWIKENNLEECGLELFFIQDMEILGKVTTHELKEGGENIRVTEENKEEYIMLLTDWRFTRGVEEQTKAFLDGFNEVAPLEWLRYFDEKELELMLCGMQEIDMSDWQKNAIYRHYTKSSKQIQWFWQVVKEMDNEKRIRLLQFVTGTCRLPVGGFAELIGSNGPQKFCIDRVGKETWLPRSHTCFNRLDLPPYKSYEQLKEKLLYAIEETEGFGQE

Columns and labels:
[1] = target: SMAD7 (mouse) (UniProt O35253); assay: co-immunoprecipitation with anti-FLAG antibody from NIH-3T3 lysates, western blot (FIG. 16C)
[2] = target: SMAD2 protein (mouse) (UniProt Q62432); assay: as above
[3] = target: SMAD2 protein (mouse) (UniProt Q62432); assay: co-immunoprecipitation in fibroblasts (summary sentence of Example 8)
[4] = target: SMAD2 protein (mouse) (UniProt Q62432); assay: co-immunoprecipitation in mouse primary cardiac fibroblasts (summary sentence of Example 5)
[5] = target: SMAD7 (mouse) (UniProt O35253); assay: co-immunoprecipitation with anti-SMAD7 antibody from TGFβ1-stimulated mouse primary cardiac fibroblasts, western blot (FIG. 16E)
[6] = target: SMAD2 protein (mouse) (UniProt Q62432); assay: co-immunoprecipitation with anti-SMAD2 antibody from TGFβ1-stimulated mouse primary cardiac fibroblasts, western blot (FIG. 16D)
[7] = target: SMAD2 protein (mouse) (UniProt Q62432); assay: co-immunoprecipitation, western blot (summary of FIGS. 16C and 16D)

binding [5] | binding [6] | binding [7] | Substance | further results
– | – | – | FLAG-tagged WWP2-C (from UniProt O00308 440-870) (enzyme) | binding [1]: binds
– | – | – | FLAG-tagged WWP2-N (from UniProt O00308 1-335) | binding [2]: binds
– | – | – | WWP2, endogenous in mouse primary cardiac fibroblasts (isoform not specified) (from UniProt Q9DBH0 1-870) (enzyme) | binding [3]: binds; binding [4]: binds
binds | – | – | WWP2-C, endogenous in mouse WT primary cardiac fibroblasts (from UniProt Q9DBH0 440-870) (enzyme) | –
binds | binds | binds | WWP2-FL, endogenous in mouse WT primary cardiac fibroblasts (from UniProt Q9DBH0 1-870) (enzyme) | –
– | binds | binds | WWP2-N, endogenous in mouse WT primary cardiac fibroblasts (from UniProt Q9DBH0 1-335) | –
